Laboratory results published in the supplement of paper PMC10849652.
Some of the results follow.

Chains of the proteins cited; added tags and fusions are not shown. Lines headed by an entry give the natural chain unless they say otherwise; changes in a name come on top.
UniProt Q9Y2B0: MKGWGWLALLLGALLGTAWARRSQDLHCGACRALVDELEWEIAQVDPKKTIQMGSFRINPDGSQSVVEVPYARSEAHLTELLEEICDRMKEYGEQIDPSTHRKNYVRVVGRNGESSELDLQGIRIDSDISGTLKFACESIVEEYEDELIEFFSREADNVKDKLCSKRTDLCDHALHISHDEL
UniProt Q8NE01: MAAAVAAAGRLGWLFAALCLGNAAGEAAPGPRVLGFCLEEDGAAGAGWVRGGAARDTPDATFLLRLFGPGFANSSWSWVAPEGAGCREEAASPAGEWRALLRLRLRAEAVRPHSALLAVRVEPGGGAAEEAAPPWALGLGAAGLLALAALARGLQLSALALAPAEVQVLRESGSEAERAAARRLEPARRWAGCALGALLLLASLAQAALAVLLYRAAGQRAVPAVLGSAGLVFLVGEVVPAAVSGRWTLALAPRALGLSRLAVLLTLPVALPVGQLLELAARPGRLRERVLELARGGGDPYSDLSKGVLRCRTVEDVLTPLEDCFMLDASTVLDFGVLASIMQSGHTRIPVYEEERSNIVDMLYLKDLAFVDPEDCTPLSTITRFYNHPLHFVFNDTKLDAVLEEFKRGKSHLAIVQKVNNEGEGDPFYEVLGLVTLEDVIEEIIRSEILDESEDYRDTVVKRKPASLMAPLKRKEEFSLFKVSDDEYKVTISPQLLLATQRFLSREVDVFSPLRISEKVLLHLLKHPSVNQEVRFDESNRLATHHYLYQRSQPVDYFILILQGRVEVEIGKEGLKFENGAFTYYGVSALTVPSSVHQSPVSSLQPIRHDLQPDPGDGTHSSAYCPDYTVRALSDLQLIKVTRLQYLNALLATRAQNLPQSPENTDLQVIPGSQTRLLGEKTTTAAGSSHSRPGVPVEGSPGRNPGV
UniProt Q9P2E5: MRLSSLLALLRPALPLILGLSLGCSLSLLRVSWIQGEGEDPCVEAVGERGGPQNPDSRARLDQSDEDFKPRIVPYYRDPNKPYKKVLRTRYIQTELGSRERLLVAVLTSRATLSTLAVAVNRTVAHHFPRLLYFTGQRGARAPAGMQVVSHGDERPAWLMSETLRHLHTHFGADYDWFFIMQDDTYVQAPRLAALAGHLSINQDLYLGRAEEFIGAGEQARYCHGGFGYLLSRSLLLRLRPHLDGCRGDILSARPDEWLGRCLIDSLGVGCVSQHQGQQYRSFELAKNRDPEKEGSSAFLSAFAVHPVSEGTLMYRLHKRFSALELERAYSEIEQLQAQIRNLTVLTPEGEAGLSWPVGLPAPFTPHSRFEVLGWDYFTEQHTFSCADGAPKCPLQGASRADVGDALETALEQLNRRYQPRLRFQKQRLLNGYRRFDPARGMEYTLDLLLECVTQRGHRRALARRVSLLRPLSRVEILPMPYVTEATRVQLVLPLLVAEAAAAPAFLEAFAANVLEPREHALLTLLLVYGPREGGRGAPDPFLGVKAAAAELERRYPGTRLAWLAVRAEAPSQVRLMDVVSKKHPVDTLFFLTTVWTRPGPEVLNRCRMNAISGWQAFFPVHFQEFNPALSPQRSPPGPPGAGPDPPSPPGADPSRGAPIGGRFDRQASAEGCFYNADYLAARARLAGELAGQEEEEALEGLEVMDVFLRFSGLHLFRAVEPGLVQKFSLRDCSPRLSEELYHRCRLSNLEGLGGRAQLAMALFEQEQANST
UniProt Q9NY35: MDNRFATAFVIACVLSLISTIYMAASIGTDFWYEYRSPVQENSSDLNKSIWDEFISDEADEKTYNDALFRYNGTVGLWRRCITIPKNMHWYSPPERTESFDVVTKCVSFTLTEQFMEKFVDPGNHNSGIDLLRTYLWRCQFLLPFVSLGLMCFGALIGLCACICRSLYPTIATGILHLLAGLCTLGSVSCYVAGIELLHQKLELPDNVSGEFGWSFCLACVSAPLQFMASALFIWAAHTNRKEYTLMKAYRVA
UniProt P30622: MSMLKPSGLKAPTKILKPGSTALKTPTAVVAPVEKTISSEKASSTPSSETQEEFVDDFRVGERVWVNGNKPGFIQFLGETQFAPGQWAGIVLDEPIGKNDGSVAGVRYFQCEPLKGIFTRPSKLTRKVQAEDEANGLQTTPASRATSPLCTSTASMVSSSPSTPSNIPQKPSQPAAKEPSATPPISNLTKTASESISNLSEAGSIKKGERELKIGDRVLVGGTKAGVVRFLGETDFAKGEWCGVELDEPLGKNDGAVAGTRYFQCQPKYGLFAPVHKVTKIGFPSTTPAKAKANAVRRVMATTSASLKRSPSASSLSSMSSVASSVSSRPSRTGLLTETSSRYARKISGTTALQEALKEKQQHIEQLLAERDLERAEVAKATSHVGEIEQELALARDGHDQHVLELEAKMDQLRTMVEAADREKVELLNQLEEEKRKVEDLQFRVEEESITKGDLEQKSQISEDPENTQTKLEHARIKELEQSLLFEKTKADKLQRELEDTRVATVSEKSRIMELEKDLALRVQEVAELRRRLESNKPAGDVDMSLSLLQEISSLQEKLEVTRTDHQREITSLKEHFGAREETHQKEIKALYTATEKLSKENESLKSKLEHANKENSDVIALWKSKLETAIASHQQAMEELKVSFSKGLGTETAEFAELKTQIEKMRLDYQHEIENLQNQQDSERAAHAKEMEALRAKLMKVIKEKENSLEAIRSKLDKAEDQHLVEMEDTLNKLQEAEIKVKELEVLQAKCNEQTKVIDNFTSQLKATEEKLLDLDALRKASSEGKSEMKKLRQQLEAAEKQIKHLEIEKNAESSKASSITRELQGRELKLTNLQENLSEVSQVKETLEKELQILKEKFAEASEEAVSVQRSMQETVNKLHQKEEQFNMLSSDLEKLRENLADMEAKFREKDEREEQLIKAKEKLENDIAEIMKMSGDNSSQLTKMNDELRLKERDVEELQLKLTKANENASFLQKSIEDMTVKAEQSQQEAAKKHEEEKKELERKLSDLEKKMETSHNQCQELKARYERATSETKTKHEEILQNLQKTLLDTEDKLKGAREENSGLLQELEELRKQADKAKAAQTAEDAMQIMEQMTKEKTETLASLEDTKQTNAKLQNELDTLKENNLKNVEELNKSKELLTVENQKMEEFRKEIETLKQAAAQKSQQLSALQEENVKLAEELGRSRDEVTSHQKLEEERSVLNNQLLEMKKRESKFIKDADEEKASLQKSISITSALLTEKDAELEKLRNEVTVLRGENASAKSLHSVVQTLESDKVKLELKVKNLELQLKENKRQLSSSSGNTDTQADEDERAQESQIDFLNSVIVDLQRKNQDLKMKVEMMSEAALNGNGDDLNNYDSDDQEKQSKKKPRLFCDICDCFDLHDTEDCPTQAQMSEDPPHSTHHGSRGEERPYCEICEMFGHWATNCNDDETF
UniProt Q00610: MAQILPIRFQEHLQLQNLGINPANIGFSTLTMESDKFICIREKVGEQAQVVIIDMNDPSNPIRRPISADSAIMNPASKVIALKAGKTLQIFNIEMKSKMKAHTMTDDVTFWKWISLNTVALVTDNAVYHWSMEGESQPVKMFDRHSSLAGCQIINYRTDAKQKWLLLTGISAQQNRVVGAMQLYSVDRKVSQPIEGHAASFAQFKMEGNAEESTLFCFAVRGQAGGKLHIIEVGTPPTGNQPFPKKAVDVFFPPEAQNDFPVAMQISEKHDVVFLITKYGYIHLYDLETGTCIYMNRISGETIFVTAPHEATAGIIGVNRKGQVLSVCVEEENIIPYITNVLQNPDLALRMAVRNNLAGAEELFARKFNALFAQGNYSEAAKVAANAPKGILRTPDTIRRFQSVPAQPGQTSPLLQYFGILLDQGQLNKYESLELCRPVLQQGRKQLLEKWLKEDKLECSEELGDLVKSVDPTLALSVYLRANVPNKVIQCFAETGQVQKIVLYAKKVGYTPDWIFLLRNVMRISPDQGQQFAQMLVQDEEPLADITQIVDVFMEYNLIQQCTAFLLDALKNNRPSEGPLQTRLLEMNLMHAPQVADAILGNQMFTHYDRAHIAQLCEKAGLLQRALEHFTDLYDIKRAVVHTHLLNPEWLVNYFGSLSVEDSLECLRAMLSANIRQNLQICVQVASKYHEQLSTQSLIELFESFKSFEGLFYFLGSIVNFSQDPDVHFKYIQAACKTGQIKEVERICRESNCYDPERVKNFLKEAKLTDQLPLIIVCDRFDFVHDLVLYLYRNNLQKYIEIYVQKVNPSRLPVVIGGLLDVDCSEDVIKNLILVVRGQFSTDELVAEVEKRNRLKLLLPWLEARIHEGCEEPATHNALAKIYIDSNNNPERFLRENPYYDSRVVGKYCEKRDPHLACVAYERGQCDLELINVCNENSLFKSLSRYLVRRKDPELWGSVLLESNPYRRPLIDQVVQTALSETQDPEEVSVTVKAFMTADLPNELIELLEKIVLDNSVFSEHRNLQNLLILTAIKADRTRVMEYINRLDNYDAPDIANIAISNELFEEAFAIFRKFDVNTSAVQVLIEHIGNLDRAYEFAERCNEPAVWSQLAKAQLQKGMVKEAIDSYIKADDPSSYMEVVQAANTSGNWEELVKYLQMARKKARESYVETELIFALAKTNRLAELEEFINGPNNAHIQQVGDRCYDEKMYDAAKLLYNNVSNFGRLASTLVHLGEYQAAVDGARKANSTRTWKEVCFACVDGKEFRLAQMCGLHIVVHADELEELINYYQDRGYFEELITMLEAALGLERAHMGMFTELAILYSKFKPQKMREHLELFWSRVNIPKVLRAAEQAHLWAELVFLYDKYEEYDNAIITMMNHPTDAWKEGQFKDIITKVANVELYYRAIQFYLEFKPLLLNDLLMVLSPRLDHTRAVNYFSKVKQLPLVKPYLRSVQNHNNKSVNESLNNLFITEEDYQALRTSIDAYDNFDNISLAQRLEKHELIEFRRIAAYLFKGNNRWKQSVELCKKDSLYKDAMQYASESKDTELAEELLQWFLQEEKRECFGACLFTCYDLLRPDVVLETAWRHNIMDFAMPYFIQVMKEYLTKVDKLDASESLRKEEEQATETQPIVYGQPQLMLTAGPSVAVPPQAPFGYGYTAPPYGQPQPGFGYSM
UniProt Q99653: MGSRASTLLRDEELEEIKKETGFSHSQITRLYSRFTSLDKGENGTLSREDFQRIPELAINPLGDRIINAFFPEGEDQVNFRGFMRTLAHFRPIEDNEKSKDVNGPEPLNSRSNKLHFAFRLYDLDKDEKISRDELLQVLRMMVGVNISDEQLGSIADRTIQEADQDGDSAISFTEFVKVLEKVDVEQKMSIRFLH
UniProt P08123: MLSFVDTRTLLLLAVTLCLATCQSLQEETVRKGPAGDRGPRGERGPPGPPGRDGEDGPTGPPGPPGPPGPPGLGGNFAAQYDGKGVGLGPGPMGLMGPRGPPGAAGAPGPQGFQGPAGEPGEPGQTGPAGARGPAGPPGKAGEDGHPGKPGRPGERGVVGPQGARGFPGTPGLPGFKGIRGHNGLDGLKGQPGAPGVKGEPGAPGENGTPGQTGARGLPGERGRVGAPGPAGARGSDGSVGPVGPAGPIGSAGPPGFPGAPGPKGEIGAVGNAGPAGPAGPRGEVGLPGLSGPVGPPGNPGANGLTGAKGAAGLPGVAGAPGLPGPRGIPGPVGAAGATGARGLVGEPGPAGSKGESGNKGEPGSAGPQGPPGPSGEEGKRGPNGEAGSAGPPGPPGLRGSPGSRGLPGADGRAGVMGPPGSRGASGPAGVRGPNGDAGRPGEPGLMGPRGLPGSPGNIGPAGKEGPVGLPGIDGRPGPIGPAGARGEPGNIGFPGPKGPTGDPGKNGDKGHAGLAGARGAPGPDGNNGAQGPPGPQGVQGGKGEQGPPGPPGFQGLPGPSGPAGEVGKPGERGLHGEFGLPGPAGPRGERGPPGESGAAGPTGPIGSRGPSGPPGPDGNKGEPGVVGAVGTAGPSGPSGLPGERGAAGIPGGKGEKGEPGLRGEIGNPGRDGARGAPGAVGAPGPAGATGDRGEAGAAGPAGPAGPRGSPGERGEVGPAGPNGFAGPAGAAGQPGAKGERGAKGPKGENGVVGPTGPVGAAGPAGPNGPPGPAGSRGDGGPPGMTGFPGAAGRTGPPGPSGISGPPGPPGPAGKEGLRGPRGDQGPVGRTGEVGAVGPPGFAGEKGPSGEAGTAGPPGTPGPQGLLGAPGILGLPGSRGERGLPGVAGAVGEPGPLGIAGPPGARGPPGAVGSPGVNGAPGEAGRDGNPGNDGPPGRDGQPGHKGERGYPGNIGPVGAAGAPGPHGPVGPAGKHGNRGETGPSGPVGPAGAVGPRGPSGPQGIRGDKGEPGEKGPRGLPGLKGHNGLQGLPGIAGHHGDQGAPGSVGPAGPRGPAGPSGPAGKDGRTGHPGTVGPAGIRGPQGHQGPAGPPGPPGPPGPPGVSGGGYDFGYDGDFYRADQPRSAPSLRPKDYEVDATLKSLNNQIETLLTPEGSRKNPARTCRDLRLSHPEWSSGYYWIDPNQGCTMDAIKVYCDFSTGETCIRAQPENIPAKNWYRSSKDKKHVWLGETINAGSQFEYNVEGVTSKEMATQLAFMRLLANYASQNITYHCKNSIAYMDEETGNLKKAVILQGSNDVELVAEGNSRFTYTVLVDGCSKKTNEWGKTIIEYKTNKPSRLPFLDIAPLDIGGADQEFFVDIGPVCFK

Assays:
Test in all cases: log2 fold change, soluble protein after heating vs DMSO (PISA); higher = thermal stabilisation; K562 cells, 10 uM, 30 min; active = over 0.2 and 3.5 SD of the protein, either way, in both replicates (recomputed)
[1] = compound: Cc1ccc(NC(=O)c2ccc(CN3CC[C@H](N(C)C)C3)c(C(F)(F)F)c2)cc1Nc1nccc(-c2cncnc2)n1 [bafetinib]
Method in brief: (§1)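 K562 cells (2×10^6 cells/mL) were treated with 10 μM compound for 30 min, and aliquots were heated for 3 min over 48°C-58°C. Pooled aliquots were extracted in PBS with 0.5% NP-40 at 4°C, and the supernatant after 21,000xg for 90 min was measured by TMTpro 16plex LC-MS/MS with channel sums equalised. Reported thermal stability, relative to control samples and from duplicates, is a log2 fold change.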

[2] = compound: Cc1cccc(CC(=O)N2CCc3c2ccc(-c2cn(C)c4ncnc(N)c24)c3F)n1
Method in brief: as §1

[3] = compound: Cc1cn(-c2cc(NC(=O)c3ccc(C)c(Nc4nccc(-c5cccnc5)n4)c3)cc(C(F)(F)F)c2)cn1 [nilotinib]
Method in brief: as §1

[4] = compound: Cc1nc(Nc2n[nH]c3c2CN(C(=O)N[C@H](CN(C)C)c2ccccc2)C3(C)C)c2sccc2n1
Method in brief: as §1

[5] = compound: Cc1nc(Nc2ncc(C(=O)Nc3c(C)cccc3Cl)s2)cc(N2CCN(CCO)CC2)n1 [dasatinib]
Method in brief: as §1

[6] = compound: Cc1ncc(-c2ccnc(Nc3ccc(S(C)(=O)=O)cc3)n2)n1C(C)C
Method in brief: as §1

[7] = compound: Cn1cc(-c2ccc3c(c2)CCN3C(=O)Cc2cccc(C(F)(F)F)c2)c2c(N)ncnc21
Method in brief: as §1

[8] = compound: Cn1cc(-c2ccc3nnc(C(F)(F)c4ccc5ncccc5c4)n3n2)cn1
Method in brief: as §1

[9] = compound: Cn1cncc1[C@@](N)(c1ccc(Cl)cc1)c1ccc2c(c1)c(-c1cccc(Cl)c1)cc(=O)n2C [tipifarnib]
Method in brief: as §1

[10] = compound: FC(F)(F)c1ccc(/C=C/c2nc(COc3ccc(CCCCn4ccnn4)cc3)co2)cc1 [mubritinib]
Method in brief: as §1

[11] = compound: NC(=O)Nc1cc(-c2cccc(F)c2)sc1C(=O)N[C@H]1CCCNC1
Method in brief: as §1

[12] = compound: NC(=O)c1cnc(N[C@@H]2CCCC[C@@H]2N)nc1Nc1cccc(-n2nccn2)c1
Method in brief: as §1

[13] = compound: NC1(c2ccc(-c3nc4ccn5c(=O)[nH]nc5c4cc3-c3ccccc3)cc2)CCC1
Method in brief: as §1

[14] = compound: NCC(=O)Nc1ccc(-n2nc(C(F)(F)F)cc2-c2ccc3c(ccc4ccccc43)c2)cc1
Method in brief: as §1

[15] = compound: Nc1ccccc1NC(=O)c1ccc(CNC(=O)OCc2cccnc2)cc1 [entinostat]
Method in brief: as §1

[16] = compound: O=C(CCCCCCC(=O)Nc1ccccc1)NO [vorinostat]
Method in brief: as §1

[17] = compound: O=C(CCCCCCNC(=O)c1cnc(N(c2ccccc2)c2ccccc2Cl)nc1)NO [citarinostat]
Method in brief: as §1

[18] = compound: O=C(O)c1ccc2c(c1)nc(Nc1cccc(Cl)c1)c1ccncc12 [silmitasertib]
Method in brief: as §1

[19] = compound: O=C1NC(=O)C(c2cnc3ccccn23)=C1c1cn2c3c(cc(F)cc13)CN(C(=O)N1CCCCC1)CC2
Method in brief: as §1

[20] = compound: c1cc(OCCN2CCCCC2)cc(-c2n[nH]c3ccc(-c4nnc[nH]4)cc23)c1
Method in brief: as §1

Measured: log2 fold change

CNPY2 (UniProt Q9Y2B0)
inactive: [1] -0.093 | [2] -0.049 | [3] 0.021 | [4] 0.018 | [5] 0.008 | [6] -0.027 | [7] 0.032 | [8] 0.032 | [9] 0.054 | [10] 0.015 | [11] -0.017 | [12] 0.008 | [13] -0.045 | [14] -0.013 | [15] -0.007 | [16] 0.007 | [17] -0.011 | [18] -0.012 | [19] -0.004 | [20] -0.016

CNTNAP4 (UniProt Q9C0A0)
inactive: [1] 0.291 | [2] 0.003 | [3] -0.077 | [4] 0.164 | [5] 0.277 | [6] -0.08 | [7] -0.27 | [8] -0.12 | [9] 0.078 | [10] -0.224 | [11] 0.119 | [12] 0.074 | [13] 0.337 | [14] 0.07 | [15] -0.117 | [16] -0.04 | [17] -0.173 | [18] 0.172 | [19] -0.099 | [20] -0.313

CKM (UniProt P06732)
inactive: [1] 0.093 | [2] 0.059 | [3] -0.011 | [4] 0.001 | [5] -0.083 | [6] 0.013 | [7] 0.061 | [8] -0.116 | [9] -0.01 | [10] 0.063 | [11] 0.026 | [12] -0.008 | [13] -0.168 | [14] -0.033 | [15] 0.042 | [16] 0.062 | [17] 0.08 | [18] 0.116 | [19] -0.077 | [20] -0.043

CIAO3 (UniProt Q9H6Q4)
inactive: [1] -0.059 | [2] 0.018 | [3] -0.041 | [4] -0.024 | [5] -0.126 | [6] 0.004 | [7] 0.082 | [8] 0.034 | [9] -0.069 | [10] 0 | [11] -0.012 | [12] -0.002 | [13] -0.051 | [14] -0.034 | [15] -0.019 | [16] -0.001 | [17] 0.035 | [18] -0.011 | [19] -0.046 | [20] -0.003

CLIC2 (UniProt O15247)
inactive: [1] 0.016 | [2] 0.009 | [3] -0.024 | [4] -0.063 | [5] -0.107 | [6] 0.008 | [7] 0.034 | [8] -0.002 | [9] -0.053 | [10] 0.046 | [11] -0.039 | [12] 0 | [13] -0.065 | [14] -0.051 | [15] 0.084 | [16] 0.091 | [17] 0.086 | [18] 0.029 | [19] -0.028 | [20] -0.039

CMTM3 (UniProt Q96MX0)
inactive: [1] 0.05 | [2] -0.078 | [3] -0.056 | [4] -0.007 | [5] 0.017 | [6] 0.013 | [7] 0.05 | [9] 0.098 | [10] -0.052 | [11] -0.056 | [12] -0.033 | [13] -0.08 | [14] 0.072 | [15] -0.03 | [16] -0.087 | [17] -0.118 | [18] 0.009 | [19] 0.096 | [20] -0.189

Quoted at random: two entries already listed, in no set order.
CMTM3 (UniProt Q96MX0)
inactive: [1] 0.05 | [2] -0.078 | [3] -0.056 | [4] -0.007 | [5] 0.017 | [6] 0.013 | [7] 0.05 | [9] 0.098 | [10] -0.052 | [11] -0.056 | [12] -0.033 | [13] -0.08 | [14] 0.072 | [15] -0.03 | [16] -0.087 | [17] -0.118 | [18] 0.009 | [19] 0.096 | [20] -0.189

CIAO3 (UniProt Q9H6Q4)
inactive: [1] -0.059 | [2] 0.018 | [3] -0.041 | [4] -0.024 | [5] -0.126 | [6] 0.004 | [7] 0.082 | [8] 0.034 | [9] -0.069 | [10] 0 | [11] -0.012 | [12] -0.002 | [13] -0.051 | [14] -0.034 | [15] -0.019 | [16] -0.001 | [17] 0.035 | [18] -0.011 | [19] -0.046 | [20] -0.003

The list continues.

CNN2 (UniProt Q99439)
inactive: [1] -0.001 | [2] 0.052 | [3] -0.075 | [4] -0.074 | [5] -0.14 | [6] 0.006 | [7] 0.011 | [8] 0.044 | [9] -0.16 | [10] 0.051 | [11] -0.029 | [12] -0.031 | [13] -0.104 | [14] -0.052 | [15] 0.08 | [16] 0.029 | [17] 0.061 | [18] 0.062 | [19] -0.062 | [20] -0.026

CIAO1 (UniProt O76071)
inactive: [1] -0.078 | [2] -0.038 | [3] -0.007 | [4] -0.029 | [5] -0.043 | [6] -0.009 | [7] 0.036 | [8] 0.001 | [9] 0.103 | [10] 0.069 | [11] -0.03 | [12] -0.004 | [13] -0.024 | [14] -0.032 | [15] 0.007 | [16] -0.041 | [17] -0.073 | [18] -0.011 | [19] -0.02 | [20] 0.033

CNNM3 (UniProt Q8NE01)
inactive: [1] -0.045 | [2] -0.064 | [3] 0.006 | [4] -0.008 | [5] -0.027 | [6] 0.104 | [7] 0.041 | [8] 0.031 | [9] -0.045 | [10] 0.073 | [11] -0.125 | [12] -0.031 | [13] -0.025 | [14] -0.073 | [15] -0.024 | [16] 0.4 | [17] -0.001 | [18] -0.012 | [19] 0.038 | [20] -0.086

CHPF2 (UniProt Q9P2E5)
inactive: [1] -0.19 | [2] -0.005 | [3] -0.017 | [4] -0.188 | [5] 0.055 | [6] 0.064 | [7] -0.125 | [8] 0.07 | [9] 0.157 | [10] -0.021 | [11] -0.041 | [12] 0.02 | [13] -0.116 | [14] 0.073 | [15] 0.043 | [16] -0.004 | [18] 0.099 | [19] 0.182

CLDND1 (UniProt Q9NY35)
inactive: [1] 0.022 | [2] -0.007 | [3] 0.157 | [4] -0.156 | [5] 0.186 | [6] -0.003 | [7] -0.269 | [8] -0.028 | [9] 0.029 | [10] 0.052 | [11] -0.016 | [12] 0.088 | [13] -0.02 | [14] -0.066 | [15] -0.032 | [16] -0.001 | [17] -0.014 | [18] 0.046 | [19] 0 | [20] -0.097

CLIP1 isoform 1 (UniProt P30622)
inactive: [1] -0.061 | [2] -0.035 | [3] 0.018 | [4] -0.004 | [5] 0.018 | [6] -0.018 | [7] 0.008 | [8] 0.012 | [9] 0.034 | [10] 0.036 | [11] 0.011 | [12] -0.031 | [13] 0.011 | [14] 0.013 | [15] -0.024 | [16] -0.023 | [17] -0.018 | [18] 0.014 | [19] -0.01 | [20] -0.006

CLTC (UniProt Q00610)
inactive: [1] 0.189 | [2] -0.015 | [3] 0.086 | [4] 0.086 | [5] 0.158 | [6] 0.089 | [7] -0.098 | [8] -0.076 | [9] -0.104 | [10] -0.018 | [11] 0.03 | [12] 0.091 | [13] -0.059 | [14] 0.147 | [15] -0.016 | [16] -0.015 | [17] -0.105 | [18] 0.153 | [19] -0.046 | [20] 0.078

CHP1 (UniProt Q99653)
inactive: [1] 0 | [2] -0.087 | [3] 0.014 | [4] 0.019 | [5] 0.042 | [6] 0.004 | [7] 0.043 | [8] -0.116 | [9] 0.072 | [10] 0.037 | [11] -0.1 | [12] 0.014 | [13] -0.104 | [14] 0.19 | [15] -0.012 | [16] -0.066 | [17] 0.001 | [18] 0.061 | [19] -0.054 | [20] 0.011

CNOT6 (UniProt Q9ULM6)
inactive: [1] 0.042 | [2] 0.404 | [3] 0.005 | [4] -0.13 | [5] -0.125 | [6] 0.024 | [7] 0.078 | [8] -0.176 | [10] 0.118 | [11] 0.057 | [12] -0.087 | [13] 0.001 | [14] 0.1 | [15] 0.064 | [16] 0.06 | [17] -0.054 | [18] 0.054 | [20] 0.042

COL1A2 (UniProt P08123)
inactive: [1] -0.141 | [2] -0.027 | [3] -0.046 | [4] 0.04 | [5] -0.013 | [6] 0.238 | [7] 0.036 | [8] -0.013 | [11] -0.014 | [12] 0.033 | [14] 0.08 | [15] -0.038 | [16] -0.081 | [17] -0.014 | [19] 0.302 | [20] 0.444
